Data: publication PMC7819943, “Rice protein-binding microarrays: a tool to detect cis-acting elements near promoter regions in rice”
The other results are listed elsewhere or left out.

Protein sequences, listed by entry. Tags and fused reporters are not part of them.
UniProt Q0JBA9, entry or part of it: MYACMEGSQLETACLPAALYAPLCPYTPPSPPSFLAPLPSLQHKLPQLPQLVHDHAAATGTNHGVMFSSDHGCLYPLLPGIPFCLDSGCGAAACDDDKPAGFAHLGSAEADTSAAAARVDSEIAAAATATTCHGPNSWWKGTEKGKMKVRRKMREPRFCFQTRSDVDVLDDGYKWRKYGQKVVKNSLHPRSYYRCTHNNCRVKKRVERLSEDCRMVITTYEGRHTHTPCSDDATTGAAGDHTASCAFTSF

Target: OsWRKY34 (Oryza sativa, UniProt Q0JBA9 1-250)
Assay: protein-binding microarray (RPBM); PBS, 2% BSA, 51.3 ng/ul salmon testes DNA, 50 uM zinc acetate, 200 nM TF, 25 C, 1 h; high values mean tight binding
Settings: protein: recombinant; tags: N-terminal polyhistidine and DsRed monomer fusion (pET32a); label: CyDye5-dUTP incorporated in the synthesized complementary strand; 3' TTTTT single-stranded linker to array surface; dsDNA, one strand shown
Procedure, shortened: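 An Axon 4000B scanner gave the binding signal as per-feature fluorescence intensity in arbitrary units. This followed washing of a custom Agilent array that had been incubated for 1 h at 25 °C with 200 nM protein in PBS, 2% BSA, salmon testes DNA and 50 µM zinc acetate. The proteins were transcription factors fused at the N-terminus to polyhistidine and DsRed, expressed in E. coli BL21-CodonPlus and purified on Ni–NTA.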

In order of rising binding signal:
1. CTCTCCTTGTTGATCGCCTATATAAACCGCGCCATGCGCCCGGAGTCACCTAGTGCAG  8080 fluorescence intensity (a.u.)
2. AACGGCTATTCCTACGTTAATTTTCATGTTTTGTAATGATCGGAGTCACCTAGTGCAG  8160 fluorescence intensity (a.u.)
3. ATGACCTACATTTTTTTTCATATTTACCCAACTATCGACGCGGAGTCACCTAGTGCAG  8170 fluorescence intensity (a.u.)
4. GCAGTACACATATCCAAATCTACGTTGTGTTCGATCGATCCGGAGTCACCTAGTGCAG  8180 fluorescence intensity (a.u.)
5. GCGCCACCACCGCCGTCGTGCGACGCCGTCTGTGCCGTGCCGGAGTCACCTAGTGCAG  8300 fluorescence intensity (a.u.)
6. ACCGTCGTCAGCAACGCCGCTACTGCCACTGCAATTGCCGCGGAGTCACCTAGTGCAG  8320 fluorescence intensity (a.u.)
7. CCACGTTGACTAGAACCGAGCACTATACAGCTTAGGGCGTCGGAGTCACCTAGTGCAG  8360 fluorescence intensity (a.u.)
8. TGCACCCAAATTCTCGCCGTCGTTCCATCGTTTCTGTGGACGGAGTCACCTAGTGCAG  8370 fluorescence intensity (a.u.)
9. AGGGCTCCCGCCGACGCTCTCTCCTCGTCGCCGGATATTCCGGAGTCACCTAGTGCAG  8390 fluorescence intensity (a.u.)
10. TGCTTTACTTGCTCACAGTTGTCCTCTTGCCTCGTCGTGTCGGAGTCACCTAGTGCAG  8400 fluorescence intensity (a.u.)
11. CGGCCTCCTCACCCACATCCGCCGCCGCCGCCGCAGAATCCGGAGTCACCTAGTGCAG  8680 fluorescence intensity (a.u.)
12. TCACACCGTTCTTCATGTATTTTAATAAGTGTGCACAATACGGAGTCACCTAGTGCAG  8700 fluorescence intensity (a.u.)
13. GCCCAAAAATACAATCTCTGCACAATACAGAACCTTTGACCGGAGTCACCTAGTGCAG  8710 fluorescence intensity (a.u.)
14. GTTCTTCCCCTATTTCTTACTGTAGTCTCATTTATTTAGACGGAGTCACCTAGTGCAG  8710 fluorescence intensity (a.u.)
15. TGTCTATATACCTCCCTGTTACTGTCTGGTTTACTGCATGCGGAGTCACCTAGTGCAG  8780 fluorescence intensity (a.u.)
16. ACCGAACCAATCTCTTGCTTTTTAATCATTGCGCAGGTAGCGGAGTCACCTAGTGCAG  8830 fluorescence intensity (a.u.)
17. TATTTTCTGCTGTTTGCATGTAACGCCGCGGCACTACTCTCGGAGTCACCTAGTGCAG  8840 fluorescence intensity (a.u.)
18. CACACACACTCACAACTGTCAAATCTCACCTGCAGATTAACGGAGTCACCTAGTGCAG  8850 fluorescence intensity (a.u.)
19. GGACATAATCCCTGCGGTTCCATAATTCTTGACGTCCTTACGGAGTCACCTAGTGCAG  8880 fluorescence intensity (a.u.)
20. ATCTGGATTTCTTTTGGTTAACTACCTGATCTCATCTCCCCGGAGTCACCTAGTGCAG  8960 fluorescence intensity (a.u.)
21. TCCTTAATTCTATTTTTCATTTTCCTGTCTTTTAGCCTCACGGAGTCACCTAGTGCAG  9010 fluorescence intensity (a.u.)
22. CTTTCTTCTACTACCTTCGACCCAACTATACGTGACACATCGGAGTCACCTAGTGCAG  9060 fluorescence intensity (a.u.)
23. TGTGACACTGGAACGTCGGTTTGATCACCCGGCCGGCCCCCGGAGTCACCTAGTGCAG  9090 fluorescence intensity (a.u.)
24. GCTTTTCTCATTCTAAGACTTTATTTTCTTTCGGCAAAGACGGAGTCACCTAGTGCAG  9340 fluorescence intensity (a.u.)
25. GCTTCAATCCTAGCCATACATTTTTCTCACTCCATTTCATCGGAGTCACCTAGTGCAG  9400 fluorescence intensity (a.u.)
26. GCAACCGACCTCGCCCACCCGCACCGCACCACACCCACGCCGGAGTCACCTAGTGCAG  9720 fluorescence intensity (a.u.)
27. GTGTGTGTTGGCCATCGGTGGCGGCCATCTTCTCGCTCGACGGAGTCACCTAGTGCAG  9760 fluorescence intensity (a.u.)
28. TCCTCTCCCACGTCCGCGCACCGCCGGCTCCCTCCGCCGCCGGAGTCACCTAGTGCAG  9840 fluorescence intensity (a.u.)
29. CCTTCGCCGCCTCGTGACCACCTCGATTTATTTCGCAACCCGGAGTCACCTAGTGCAG  9880 fluorescence intensity (a.u.)
30. AGCAGGTATGTCACTGTGTTAGTTTCGGTTCGATTTTGGGCGGAGTCACCTAGTGCAG  9910 fluorescence intensity (a.u.)
31. ATAACTAATATCCTCAACCGTTTGCTCTCATCACACATTCCGGAGTCACCTAGTGCAG  9970 fluorescence intensity (a.u.)
32. ATGTCTCCGTCTCTTTTACCTCAGTCTCGCGTATATCCTACGGAGTCACCTAGTGCAG  10100 fluorescence intensity (a.u.)
33. CTACTCCCTCCGTTTCACAGCATTTTCCACATTCATATTGCGGAGTCACCTAGTGCAG  10200 fluorescence intensity (a.u.)
34. GTCACCAGTGTCCGCCAATAATTTGCACATCTTCTCATATCGGAGTCACCTAGTGCAG  10300 fluorescence intensity (a.u.)
35. CTACCATTCAAATCCCTAACTGCCTGTCTGCCATTTCTCTCGGAGTCACCTAGTGCAG  10400 fluorescence intensity (a.u.)
36. GCGCGCCGAGTCCAACTTGCCCACCAACTCGCGCCAACCACGGAGTCACCTAGTGCAG  11000 fluorescence intensity (a.u.)
37. ATAATTGGTCAACCTGTTTTTCTTGACCGTTCTCGAGCTCCGGAGTCACCTAGTGCAG  11100 fluorescence intensity (a.u.)
38. GCTCGTTTTTTCTTAAAATTTTCAACTTTTTTATCACATTCGGAGTCACCTAGTGCAG  11400 fluorescence intensity (a.u.)
39. CTCTCTCTCTCGTATTTTCCCATGTTACATGCTCTCTCTTCGGAGTCACCTAGTGCAG  12000 fluorescence intensity (a.u.)
40. GAAATATTTGTTGCTGATGTACGCTTTTCTGTTTTTCTTTCGGAGTCACCTAGTGCAG  13800 fluorescence intensity (a.u.)
41. CATTTAGTTTGGGATGGGGTGGTTGATCCGATTTTTTCTGCGGAGTCACCTAGTGCAG  14700 fluorescence intensity (a.u.)
42. GCACTTATATCTTTTGTCGTTGGTTCTATATGCCCATTTTCGGAGTCACCTAGTGCAG  15400 fluorescence intensity (a.u.)
